Experimental findings from PMC5591878 are described below.

By UniProt entry, the sequences of proteins in these tests, tags left out.
UniProt P48580: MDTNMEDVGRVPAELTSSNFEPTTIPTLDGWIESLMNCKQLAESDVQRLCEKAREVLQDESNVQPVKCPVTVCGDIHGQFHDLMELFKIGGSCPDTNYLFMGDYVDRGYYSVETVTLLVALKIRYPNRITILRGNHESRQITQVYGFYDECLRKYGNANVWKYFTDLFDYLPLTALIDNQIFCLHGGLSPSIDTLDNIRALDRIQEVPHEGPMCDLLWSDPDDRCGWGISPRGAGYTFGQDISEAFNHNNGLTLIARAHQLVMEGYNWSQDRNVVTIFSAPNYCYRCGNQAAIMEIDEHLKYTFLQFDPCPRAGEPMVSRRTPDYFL

What all share (test): affinity purification with mass spectrometry; tagged proteins immunoprecipitated with anti-cMYC or anti-GFP antibodies, run briefly on a 4-12% SDS-PAGE gel, digested with trypsin, LC-MS on a Q Exactive plus
The target of test [1] is RGB1::GFP, PP2A regulatory subunit RGB1 fused to GFP (Neurospora crassa).
Test [2] deals with B56::GFP, PP2A regulatory subunit B56 fused to GFP (Neurospora crassa).
Test [3] addresses MYC::PPH1, PP2A catalytic subunit PPH1 with MYC tag (Neurospora crassa) (UniProt P48580).

No constants are given. Whether binding was seen depends on the method and setting. In cells and extracts the contact can be indirect. A yes stands for co-enrichment or nearness to the bait. Other partners may have been found. For some assays here: Tags and fused reporters may be left off the sequences shown.

B1: MYC::COT1, COT1 kinase with MYC tag (enzyme, UniProt P38679 1-598)
chain: MDNTNRPHLNLGTNDTRMAPNDRTYPTTPSTFPQPVFPGQQAGGSQQYNQAYAQSGNYYQQNHNDPNTGLAHQFAHQNIGSAGRASPYGSRGPSPAQRPRTSGNSGQQQTYGNYLSAPMPSNTQTEFAPAPERNPDKYGPNANNNQKKCSQLASDFFKDSVKRARERNQRQSEMEQKLGETNDARRRESIWSTAGRKEGQYLRFLRTKDKPENYQTIKIIGKGAFGEVKLVQKKADGKVYAMKSLIKTEMFKKDQLAHVRAERDILAESDSPWVVKLYTTFQDANFLYMLMEFLPGGDLMTMLIKYEIFSEDITRFYIAEIVLAIDAVHKLGFIHRDIKPDNILLDRGGHVKLTDFGLSTGFHKLHDNNYYTQLLQGKSNKPRDNRNSVAIDQINLTVSNRAQINDWRRSRRLMAYSTVGTPDYIAPEIFTGHGYSFDCDWWSLGTIMFECLVGWPPFCAEDSHDTYRKIVNWRHSLYFPDDITLGVDAENLIRSLICNTENRLGRGGAHEIKSHAFFRGVEFDSLRRIRAPFEPRLTSAIDTTYFPTDEIDQTDNATLLKAQQAARGAAAPAQQEESPELSLPFIGYTFKRFDNNFR
Regarding B1, the binding result in test [1] and in test [2] was “binds” throughout.

B2: COT1, nuclear Dbf2-related (NDR) Ser/Thr kinase (protein, UniProt P38679 1-598)
chain: MDNTNRPHLNLGTNDTRMAPNDRTYPTTPSTFPQPVFPGQQAGGSQQYNQAYAQSGNYYQQNHNDPNTGLAHQFAHQNIGSAGRASPYGSRGPSPAQRPRTSGNSGQQQTYGNYLSAPMPSNTQTEFAPAPERNPDKYGPNANNNQKKCSQLASDFFKDSVKRARERNQRQSEMEQKLGETNDARRRESIWSTAGRKEGQYLRFLRTKDKPENYQTIKIIGKGAFGEVKLVQKKADGKVYAMKSLIKTEMFKKDQLAHVRAERDILAESDSPWVVKLYTTFQDANFLYMLMEFLPGGDLMTMLIKYEIFSEDITRFYIAEIVLAIDAVHKLGFIHRDIKPDNILLDRGGHVKLTDFGLSTGFHKLHDNNYYTQLLQGKSNKPRDNRNSVAIDQINLTVSNRAQINDWRRSRRLMAYSTVGTPDYIAPEIFTGHGYSFDCDWWSLGTIMFECLVGWPPFCAEDSHDTYRKIVNWRHSLYFPDDITLGVDAENLIRSLICNTENRLGRGGAHEIKSHAFFRGVEFDSLRRIRAPFEPRLTSAIDTTYFPTDEIDQTDNATLLKAQQAARGAAAPAQQEESPELSLPFIGYTFKRFDNNFR
In the case of B2, in test [3], the binding entry was “binds”.

B3: MOB2B (protein, UniProt Q7SD46 1-303)
chain: MPSPSNNSISSQSSANLSSKLPPLPASPSLSQSIGMMGTGEEALNAYHLPRPLPLWLNPTAAKHIVKGNFMTLSARPKTVEQGEWIAHQVVEHYRNLWNFVRVVYEKEEDGKSICNSITCPRMSAGTNHSYTWLNSRFEPIELPAYEYITLMQRWISGKIDDTKMFPTEASGVSFAHNPQITTTALLTGPDDWIGKRSGFPKEFFNICQTIFLQMFRVYAHLYWAHFTEPFYHLNLEKQLNSCFSHFVLTATALDMLKPAELEPMQPLIDLWAANGTFPPESKAYEYANLKVGTRLMQMAGLA
Take B3: the binding result in test [3] was “binds”.

B4: GUL1 (protein, UniProt Q1K842 1-1365)
chain: MDQQQQPQGGVSGPAGRRLHIAHRRSPSELTPLMSMFSNTNMEQLAIQQQIELLQQQQQQITAQYANLGMLPATQPLGPGGFTNFQPIAGLAPQAGFQFPVQLQQQPPLAPPTQPLSHRRNQSAIPNMGMGGPPPAPSAGASGSTFGNFQDPTQGHARENSTGGRGGRGGSGGGHQRRHSLALADAKKAAEIAQQKRTTSTFQFPAAPAPGSSEKSEDDAKTTPSTTPAPAEGQIAQGSSFRGGRGGHGRSQSMAVGANGRGGRGGHFSTDSVGQGSDFSRRAPGSGHARTGSRNFDGNWRNQNQNQNQNQAQDQTAALPQSQGFQPGHRSRGSVSQSISSIGSFQYPGQPQLVQFPGQMMMPQVFPGQQLNPMQLNQLQALQLAQMNGQPLTGLAASQHAPQMAAPGQQSQQQQRKTLFTPYLPQATLPALLGNGQLVSGILRVNKKNRSDAYVSTQDGLLPADIFICGSKDRNRALEGDLVAVELLDVGEVWAQKREKEEKKKRKDITDTRSGSISGGQNTGDDNGNAEGGLRRRGSLRQRPTQKKNDDVEVEGQSLLLVEEEEINDEQQPLFAGHIVAVIERVPGQMFSGTLGLLRPSSQATKEKQEAERAARDGGNGRQQDSRSHEKPKIVWFKPTDKRVPLIAIPTEQAPKDFVEKHQDYADQIFVACIKRWPITSLHPFGTLVEKLGKMGDLKVETDALLRDNNFASDEFAEAVLRNVSQQDWSLESEDQAALAARRDFRGENVFTVELDSSVELGNGVHFKQLPDGKIEIGIHVPDVAHFVKPGSLVDREAKKRGTAVHLVNRFCALLPPKLSSELCTLTPEQDRLTFSVVFHVNPQTGAVAEGDTWIGKGIVKSGGKVSLSEIDEAISGSSGFSHPSVKALDIQILNAVAQKFREARLGAGGEPIAPLRLLQQLDDENIPPKHNIFESSQATELVEELMHKANTHVAQRLAQGLPEKALLRRQSAPNSRRLQTIIDRMTALGYDIDATSSGTLQNSLFKIDDSDIRKGMETLLVKSMQRAKYFIAGKTASLLWPHYALNLPLYTHFTYPTRRYADIIVHRQLEAVLSDGKIEYTEDLENLVKTVESCNTKKDSAQNAQEQSVHIESCRTMDKKRQEVNGDLISEGIVICVYESAFDVLIPEWGFEKRVHCDQLPLKKAEFRKEKRVLELYWEKGVPSSAYVPEDERPKAAASQRISNALAAARQAEEAERAKKDREEAARKQIETGTVSHDDVDALFQDEDEDDIEDNASDITEAMAGASLAERPTQSVPGSPTQSAAEAVGTLHRTRSDSKVPVGEAPEARLTNKEKYLKLFKLREEGGEYIQDVTEMTRVPVILKTDLSKSPPCLTIRSLNPYAL
Turning to B4, in test [3], the binding result was “binds”.
